# Source: PubChem BioAssay AID248 (DTP/NCI, 2004)
# The list shows only some results of the screen, not a fair sample: it gathers tests that were run many times, whatever their T/C, doses with no T/C, and many T/C values between a quarter and a half above the control. Other doses and runs of a compound stand elsewhere. T/C: endpoint of the treated group in % of that of the vehicle group. Some entries give survivors of the animals treated and no T/C: the source files T/C as zero there, which appears to mark a toxic dose or a test without result, not a measured value. Some doses without a T/C left all or most animals alive at the check, yet need not have been tolerated: survival well below the control is almost never listed, so the zero probably covers shortened survival too. Survivors were counted at the toxicity check, usually on the fifth day, unless a day is given; later deaths do not show. Schedules are NCI's codes, taken here to give the interval after Q, in days (D) or hours (H), and the number of doses after X. Some schedules carry Z or #; the key to these is not given. For survival time, this PubChem deposit counts one and a half times the control or more as active, and values a quarter to a half above the control carry no call in these data; other NCI protocols may use other cut-offs. Some doses were run more than once; their values stand side by side, smallest first. Some T/C values are followed by the survivors on the day toxicity was checked, most often the fifth; without a count, all were alive then.
# System: L1210 leukemia ip in BDF1 mice, survival T/C
# Assay: NCI In Vivo Anticancer Drug Screen. Data for tumor model L1210 Leukemia (intraperitoneal) in B6D2F1 (BDF1) mice
# Settings: T/C endpoint: mean survival time, higher T/C = longer survival
# [1] = dose: 400.0 mg/kg/injection, schedule: Q04DX002 (ip), vehicle: saline with Tween-80
# [2] = dose: 25.0 mg/kg/injection, schedule: Q01DX009 (ip), vehicle: saline
# [3] = dose: 100.0 mg/kg/injection, schedule: Q01DX009 (ip), vehicle: saline
# [4] = dose: 50.0 mg/kg/injection, schedule: Q01DX009 (ip), vehicle: saline with Tween-80
# [5] = dose: 100.0 mg/kg/injection, schedule: Q01DX009 (ip), vehicle: saline with Tween-80
# [6] = dose: 400.0 mg/kg/injection, schedule: Q01DX009 (ip), vehicle: saline with Tween-80
# [7] = dose: 200.0 mg/kg/injection, schedule: Q01DX009 (ip), vehicle: saline
compound,measurement,setting,value
CCCCC(NC(=O)C(F)(F)F)C(=O)O (configuration not stated),survivor count,"dose: 400.0 mg/kg/injection, schedule: Q01DX009 (ip), vehicle: carboxymethylcellulose (CMC)",5 of 6
Cc1ccc(NC(=O)c2ccccc2)cc1[As]=[As]c1cc(NC(=O)c2ccccc2)ccc1C (configuration not stated),survivor count,"dose: 8.0 mg/kg/injection, schedule: Q01DX015 (ip), vehicle: carboxymethylcellulose (CMC)",0 of 6
Cc1ncc(CO)c(Cc2ccccc2N(C)C)c1O,survivor count,[1],0 of 3
Cc1cc([N+](=O)[O-])cc(C)c1OC(=O)c1ccc(N=C(N)N)cc1,survivor count,"dose: 12.5 mg/kg/injection, schedule: Q01DX009 (ip), vehicle: saline",6 of 6
same,survivor count,[2],3 of 6
same,survivor count,[3],0 of 6
same,survivor count,"dose: 200.0 mg/kg/injection, schedule: Q04DX003 (ip), vehicle: saline",3 of 6
same,survivor count,"dose: 400.0 mg/kg/injection, schedule: Q04DX003 (ip), vehicle: saline",2 of 6
Nc1cc([N+](=O)[O-])ccc1Nc1ccccc1,survivor count,"dose: 50.0 mg/kg/injection, schedule: Q01DX009 (ip), vehicle: DMSO",6 of 6
same,survivor count,"dose: 100.0 mg/kg/injection, schedule: Q01DX009 (ip), vehicle: DMSO",0 of 6
same,survivor count,"dose: 200.0 mg/kg/injection, schedule: Q04DX003 (ip), vehicle: DMSO",0 of 6
same,survivor count,"dose: 400.0 mg/kg/injection, schedule: Q04DX003 (ip), vehicle: DMSO",0 of 6
O=C1C(=O)c2ccccc2C=C1Br,survivor count,"dose: 400.0 mg/kg/injection, schedule: Q04DX003 (ip), vehicle: Klucel (hydroxypropylcellulose) (HPC)",4 of 6
CSc1ccc(NC(=O)Nc2ccc(N=Nc3ccccc3)cc2)cc1,survivor count,"dose: 100.0 mg/kg/injection, schedule: Q04DX003 (ip), vehicle: Klucel (hydroxypropylcellulose) (HPC)",6 of 6
same,survivor count,"dose: 200.0 mg/kg/injection, schedule: Q04DX003 (ip), vehicle: Klucel (hydroxypropylcellulose) (HPC)",6 of 6
same,survivor count,"dose: 255.0 mg/kg/injection, schedule: Q01DX009 (ip), vehicle: saline with Tween-80",1 of 6
same,survivor count,"dose: 385.0 mg/kg/injection, schedule: Q01DX009 (ip), vehicle: saline with Tween-80",0 of 6
same,survivor count,"dose: 400.0 mg/kg/injection, schedule: Q01DX001 (ip), vehicle: other",1 of 6
N#CC(C#N)=Cc1c[nH]c2ccccc12,survivor count,"dose: 400.0 mg/kg/injection, schedule: Q04DX003 (ip), vehicle: saline with Tween-80",6 of 6
S=C(N=Nc1ccccc1)NNc1ccccc1,survivor count,"dose: 150.0 mg/kg/injection, schedule: Q01DX009 (ip), vehicle: saline with Tween-80",4 of 6
same,survivor count,"dose: 150.0 mg/kg/injection, schedule: Q01DX Z (ip), vehicle: carboxymethylcellulose (CMC)",5 of 6
same,survivor count,"dose: 300.0 mg/kg/injection, schedule: Q01DX Z (ip), vehicle: carboxymethylcellulose (CMC)",0 of 6
same,survivor count,"dose: 400.0 mg/kg/injection, schedule: Q01DX001 (ip), vehicle: carboxymethylcellulose (CMC)",0 of 6
same,survivor count,"dose: 800.0 mg/kg/injection, schedule: Q01DX001 (ip), vehicle: carboxymethylcellulose (CMC)",3 of 6
O=c1oc(Cl)cc2oc(=O)n(-c3ccccc3)c(=O)c12,survivor count,[4],3 of 3
same,survivor count,[5],0 of 3
same,survivor count,"dose: 200.0 mg/kg/injection, schedule: Q04DX002 (ip), vehicle: saline with Tween-80",1 of 3
same,survivor count,[1],0 of 3
CC(=O)NCCCCC(=O)c1ccccc1,survivor count,[6],3 of 6
C/C=C\C(=O)N(CC)C(=NCC)c1ccc(NC(=O)c2ccc(C(=O)Nc3ccc(C(=NCC)N(CC)C(=O)/C=C/C)cc3)cc2)cc1,T/C,"dose: 3.12 mg/kg/injection, schedule: Q01DX015 (ip), vehicle: methylcellulose (MC)",136 % of control
same,T/C,"dose: 12.5 mg/kg/injection, schedule: Q01DX015 (ip), vehicle: methylcellulose (MC)",129 % of control [5 of 6 alive]
same,survivor count,"dose: 25.0 mg/kg/injection, schedule: Q01DX015 (ip), vehicle: methylcellulose (MC)",0 of 6
same,survivor count,"dose: 50.0 mg/kg/injection, schedule: Q01DX015 (ip), vehicle: methylcellulose (MC)",0 of 6
same,survivor count,"dose: 100.0 mg/kg/injection, schedule: Q01DX015 (ip), vehicle: methylcellulose (MC)",0 of 6
same,survivor count,"dose: 200.0 mg/kg/injection, schedule: Q01DX015 (ip), vehicle: methylcellulose (MC)",0 of 6
same,survivor count,"dose: 400.0 mg/kg/injection, schedule: Q01DX015 (ip), vehicle: methylcellulose (MC)",0 of 6
CN(C)/N=N/c1nc[nH]c1C#N,survivor count,[6],0 of 6
COc1cc(C(=O)N2CC2)cc(OC)c1OC,survivor count,"dose: 100.0 mg/kg/injection, schedule: Q01DX009 (ip), vehicle: water",5 of 6
same,survivor count,"dose: 200.0 mg/kg/injection, schedule: Q01DX009 (ip), vehicle: water",0 of 6
same,survivor count,"dose: 400.0 mg/kg/injection, schedule: Q01DX009 (ip), vehicle: water",0 of 6
COc1cc2cc3c4cc(OC)c(OC)cc4cc[n+]3c(/C=C/c3cccc(O)c3)c2cc1OC,T/C,"dose: 100.0 mg/kg/injection, schedule: Q04DX002 (ip), vehicle: carboxymethylcellulose (CMC)","107, 115, 118, 126 % of control"
same,T/C,"dose: 200.0 mg/kg/injection, schedule: Q04DX002 (ip), vehicle: carboxymethylcellulose (CMC)","93, 107, 111, 133 % of control"
COC(=O)C(NC(=O)C(N)CSC(c1ccccc1)(c1ccccc1)c1ccccc1)C(C)C (configuration not stated),T/C,[3],130 % of control
same,T/C,[7],127 % of control
same,survivor count,[7],1 of 8
same,survivor count,"dose: 400.0 mg/kg/injection, schedule: Q01DX009 (ip), vehicle: saline",3 of 8
CCc1cc(C)cc(OC(=O)Nc2cccc(Cl)c2)c1,survivor count,[6],6 of 6
Cc1ccc(CN=C=S)cc1,survivor count,"dose: 25.0 mg/kg/injection, schedule: Q01DX009 (ip), vehicle: saline with Tween-80",1 of 3
same,survivor count,[4],2 of 6
same,survivor count,[5],0 of 6
same,survivor count,"dose: 200.0 mg/kg/injection, schedule: Q01DX009 (ip), vehicle: saline with Tween-80",0 of 6
same,survivor count,[6],0 of 6
O=c1[nH]c(=O)c2n[nH]nc2[nH]1,survivor count,"dose: 31.0 mg/kg/injection, schedule: Q01DX015 (ip), vehicle: carboxymethylcellulose (CMC)",6 of 6
same,survivor count,"dose: 62.0 mg/kg/injection, schedule: Q01DX015 (ip), vehicle: carboxymethylcellulose (CMC)",6 of 6
same,survivor count,"dose: 125.0 mg/kg/injection, schedule: Q01DX015 (ip), vehicle: carboxymethylcellulose (CMC)",6 of 6
same,survivor count,"dose: 250.0 mg/kg/injection, schedule: Q01DX015 (ip), vehicle: carboxymethylcellulose (CMC)",6 of 6
same,survivor count,"dose: 500.0 mg/kg/injection, schedule: Q01DX015 (ip), vehicle: carboxymethylcellulose (CMC)",6 of 6
CC(C)C(=O)c1ccc([N+](=O)[O-])o1,survivor count,[6],6 of 6
CC1=NCCc2cc3[nH]c4ccccc4c3cc21,survivor count,"dose: 200.0 mg/kg/injection, schedule: Q01DX001 (ip), vehicle: Klucel (hydroxypropylcellulose) (HPC)",0 of 6
same,survivor count,"dose: 400.0 mg/kg/injection, schedule: Q01DX001 (ip), vehicle: Klucel (hydroxypropylcellulose) (HPC)",0 of 6
CC(=O)OC1CCC2(C)C3=C(CCC2C1(C)C)C1(C)CCC(C(C)CCC=C(C)C)C1(C)CC3 (configuration not stated),survivor count,"dose: 200.0 mg/kg/injection, schedule: Q01DX009 (ip), vehicle: Klucel (hydroxypropylcellulose) (HPC)",3 of 3
Cc1c2cccc(Sc3ccccc3)c2c2c3c(cccc13)[S+](c1ccccc1)C2 (configuration not stated),survivor count,"dose: 25.0 mg/kg/injection, schedule: Q01DX001 (ip), vehicle: saline with Tween-80",0 of 6
same,survivor count,[2],1 of 6
same,survivor count,"dose: 50.0 mg/kg/injection, schedule: Q01DX009 (ip), vehicle: saline",2 of 6
same,survivor count,"dose: 100.0 mg/kg/injection, schedule: Q01DX001 (ip), vehicle: saline",3 of 6
same,survivor count,"dose: 200.0 mg/kg/injection, schedule: Q01DX001 (ip), vehicle: saline",0 of 6
same,survivor count,"dose: 400.0 mg/kg/injection, schedule: Q01DX001 (ip), vehicle: saline",2 of 6
